Assay results published in the supplement of paper PMC8728848.
The other results are listed elsewhere or left out.

Key:
Assay in all cases: glycan array binding signal (z-score within array); higher = stronger binding
Conditions in all cases: glycan notation: IUPAC condensed, linker removed
[1] = target: Gal(b1-4)GlcNAc(b1-3)Gal(b1-4)GlcNAc(b1-6)[Gal(b1-3)]GalNAc
Outline: (§1)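 From the Consortium for Functional Glycomics database, 3228 arrays were curated, keeping only those whose protein sequence was available. Binding is given as a within-array Z-score averaged across arrays sharing a protein sequence and across linkers. Negative Z-scores can be read as non-binding.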

[2] = target: Gal(b1-4)GlcNAc(b1-3)Gal(b1-4)[Fuc(a1-3)]GlcNAc(b1-3)Gal(b1-4)[Fuc(a1-3)]GlcNAc
Outline: as §1

[3] = target: Gal(b1-4)GlcNAc(b1-3)GalNAc
Outline: as §1

[4] = target: Gal(b1-4)GlcNAc(b1-3)[Fuc(a1-3)GlcNAc(b1-6)]Gal(b1-4)Glc
Outline: as §1

[5] = target: Gal(b1-4)GlcNAc(b1-3)[Gal(b1-4)GlcNAc(b1-6)]Gal(b1-4)GlcNAc
Outline: as §1

[6] = target: Gal(b1-4)GlcNAc(b1-3)[GlcNAc(b1-6)]Gal(b1-4)GlcNAc
Outline: as §1

[7] = target: Gal(b1-4)GlcNAc(b1-6)Gal(b1-4)GlcNAc
Outline: as §1

[8] = target: Gal(b1-4)GlcNAc(b1-6)GalNAc
Outline: as §1

[9] = target: Gal(b1-4)GlcNAc(b1-6)[Gal(b1-3)]GalNAc
Outline: as §1

[10] = target: Gal(b1-4)GlcNAc(b1-6)[Gal(b1-4)GlcNAc(b1-3)]GalNAc
Outline: as §1

[11] = target: Gal(b1-4)GlcNAc6P
Outline: as §1

[12] = target: Gal(b1-6)Gal
Outline: as §1

[13] = target: Gal3S(b1-3)GalNAc
Outline: as §1

[14] = target: Gal3S(b1-3)GlcNAc
Outline: as §1

[15] = target: Gal3S(b1-3)[Fuc(a1-4)]GlcNAc
Outline: as §1

[16] = target: Gal3S(b1-4)Glc
Outline: as §1

[17] = target: Gal3S(b1-4)Glc6S
Outline: as §1

[18] = target: Gal3S(b1-4)GlcNAc
Outline: as §1

[19] = target: Gal3S(b1-4)[Fuc(a1-3)]Glc6S
Outline: as §1

[20] = target: Gal3S(b1-4)[Fuc(a1-3)]GlcNAc
Outline: as §1

[21] = target: Gal3S(b1-4)[Fuc(a1-3)]GlcNAc6S
Outline: as §1

[22] = target: Gal3S4S(b1-4)GlcNAc
Outline: as §1

[23] = target: Gal3S6S(b1-4)GlcNAc
Outline: as §1

[24] = target: Gal3S6S(b1-4)GlcNAc6S
Outline: as §1

[25] = target: Gal4S(b1-4)GlcNAc
Outline: as §1

[26] = target: Gal4S6S(b1-4)GlcNAc
Outline: as §1

[27] = target: Gal6P(b1-4)GlcNAc
Outline: as §1

[28] = target: Gal6S(b1-3)GlcNAc
Outline: as §1

[29] = target: Gal6S(b1-3)GlcNAc6S
Outline: as §1

[30] = target: Gal6S(b1-4)Glc
Outline: as §1

[31] = target: Gal6S(b1-4)Glc6S
Outline: as §1

[32] = target: Gal6S(b1-4)GlcNAc
Outline: as §1

[33] = target: Gal6S(b1-4)GlcNAc6S
Outline: as §1

[34] = target: GalNAc(a1-3)Gal
Outline: as §1

[35] = target: GalNAc(a1-3)GalNAc
Outline: as §1

[36] = target: GalNAc(a1-3)GalNAc(b1-3)Gal(a1-4)Gal(b1-4)Glc
Outline: as §1

[37] = target: GalNAc(a1-3)GalNAc(b1-3)Gal(a1-4)Gal(b1-4)GlcNAc
Outline: as §1

[38] = target: GalNAc(b1-3)Gal
Outline: as §1

[39] = target: GalNAc(b1-3)Gal(a1-4)Gal(b1-4)GlcNAc
Outline: as §1

[40] = target: GalNAc(b1-3)Gal(a1-4)Gal(b1-4)GlcNAc(b1-3)Gal(b1-4)Glc
Outline: as §1

[41] = target: GalNAc(b1-3)Gal(a1-6)Gal(b1-4)Glc
Outline: as §1

[42] = target: GalNAc(b1-3)GalNAc
Outline: as §1

[43] = target: GalNAc(b1-3)GlcNAc
Outline: as §1

[44] = target: GalNAc(b1-4)Gal(b1-4)Glc
Outline: as §1

[45] = target: GalNAc(b1-4)GlcNAc
Outline: as §1

B1: MXA PilAct-eGFP (Myxococcus xanthus), Q59589 (protein)
chain: MRVSRFNPRNRGFTLIELMIVVAIIGILAAIAIPNFIKFQARSKQSEAKTNLKALYTAQKSFFSEKDRYSDFANEIGFAPERGNRYGYRVSAAAGDCEVRNAADLPVPAAGVPCISNDSFRFGANSAIDDPTPVVARFVPQGAAGWNTTLGVQPTIADCPNCNFFAGARGNADNEATFDDWVIAGFEGSGQVGPCSEAGNVASGTPYNTRNDVACDGAAQ
[1]
  glycan array binding signal (z-score): 0.001
[2]
  glycan array binding signal (z-score): 0.697
[3]
  glycan array binding signal (z-score): -0.587
[4]
  glycan array binding signal (z-score): 0.181
[5]
  glycan array binding signal (z-score): -0.851
[6]
  glycan array binding signal (z-score): -1.23
[7]
  glycan array binding signal (z-score): 0.221
[8]
  glycan array binding signal (z-score): -0.215
[9]
  glycan array binding signal (z-score): -0.545
[10]
  glycan array binding signal (z-score): -0.011
[11]
  glycan array binding signal (z-score): 0.348
[12]
  glycan array binding signal (z-score): -0.751
[13]
  glycan array binding signal (z-score): -1.55
[14]
  glycan array binding signal (z-score): 0.122
[15]
  glycan array binding signal (z-score): -0.932
[16]
  glycan array binding signal (z-score): -0.945
[17]
  glycan array binding signal (z-score): -1.12
[18]
  glycan array binding signal (z-score): -0.174
[19]
  glycan array binding signal (z-score): 0.594
[20]
  glycan array binding signal (z-score): -0.03
[21]
  glycan array binding signal (z-score): -0.382
[22]
  glycan array binding signal (z-score): -0.123
[23]
  glycan array binding signal (z-score): -0.332
[24]
  glycan array binding signal (z-score): 0.757
[25]
  glycan array binding signal (z-score): -0.022
[26]
  glycan array binding signal (z-score): -0.445
[27]
  glycan array binding signal (z-score): -0.421
[28]
  glycan array binding signal (z-score): 0.713
[29]
  glycan array binding signal (z-score): 0.261
[30]
  glycan array binding signal (z-score): 1.64
[31]
  glycan array binding signal (z-score): -0.152
[32]
  glycan array binding signal (z-score): -1.58
[33]
  glycan array binding signal (z-score): -0.872
[34]
  glycan array binding signal (z-score): 0.16
[35]
  glycan array binding signal (z-score): -1.12
[36]
  glycan array binding signal (z-score): -0.178
[37]
  glycan array binding signal (z-score): -0.666
[38]
  glycan array binding signal (z-score): -0.364
[39]
  glycan array binding signal (z-score): -0.519
[40]
  glycan array binding signal (z-score): -0.848
[41]
  glycan array binding signal (z-score): -0.469
[42]
  glycan array binding signal (z-score): -0.712
[43]
  glycan array binding signal (z-score): -0.256
[44]
  glycan array binding signal (z-score): -1.31
[45]
  glycan array binding signal (z-score): 0.621
